Source: patent publication US20030235860A1, “Interactions between AR, ER, TR2, and TR4” (priority 1999, published 2003)

Assays:
[1] = target: AR-N (N-terminal of AR) (human); experiment: GST pull-down, GST-TR4 on beads
AR-D (DBD of AR) (human) [2] = experiment: GST pull-down, GST-TR4 on beads
AR-L (LBD of AR) (human) [3] = experiment: GST pull-down, GST-TR4 on beads
[4] = target: TR2 orphan receptor (TR2), full-length (human); experiment: GST pull-down, GST-TR4 on glutathione-Sepharose beads, in vitro translated 35S-labeled protein
[5] = target: AR-N (N-terminal of AR) (human); experiment: Table 4, summary of interactions tested; assay not given
AR-D (DBD of AR) (human) [6] = experiment: as above
AR-L (LBD of AR) (human) [7] = experiment: as above
[8] = target: androgen receptor (AR), full-length (human); experiment: as above

B1: GST-TR4 fusion protein (protein, not shown: a dimerising Fc or GST; small tags and cut ends)
chain: MTSPSPRIQIISTDSAVASPQRIQGSEPASGPLSVFTSLNKEKIVTDQQTGQKIQIVTAVDASGSPKQQFILTSPDGAGTGKVILASPETSSAKQLIFTTSDNLVPGRIQIVTDSASVERLLGKTDVQRPQVVEYCVVCGDKASGRHYGAVSCEGCKGFFKRSVRKNLTYSCRSSQDCIINKHHRNRCQFCRLKKCLEMGMKMESVQSERKPFDVQREKPSNCAASTEKIYIRKDLRSPLIATPTFVADKDGARQTGLLDPGMLVNIQQPLIREDGTVLLATDSKAETSQGALGTLANVVTSLANLSESLNNGDTSEIQPEDQSASEITRAFDTLAKALNTTDSSSSPSLADGIDTSGGGSIHVISRDQSTPIIEVEGPLLSDTHVTFKLTMPSPMPEYLNVHYICESASRLLFLSMHRARSIPAFQGLGQDCNTSLVRACWNELFTLGLAQCAQVMSLSTILAAIVNHLQNSIQEDKLSGDRIKQVMEHIWKLQEFCNSMANWDIDGYEYAYLKAIVLFSPDHPGLTSTSQIEKFQEKAQMELQDYVQKTYSEDTYRLARILVRLPALRLMSSNITEELFFTGLIGNVSIDSIIPYILKMETAEYNGQITGVSL
[1]
  binding: binds
AR-D (DBD of AR) (human) [2]
  binding: binds
AR-L (LBD of AR) (human) [3]
  binding: binds
[4]
  binding: binds

B2: TR4 orphan receptor (TR4), full-length (receptor)
chain: MTSPSPRIQIISTDSAVASPQRIQGSEPASGPLSVFTSLNKEKIVTDQQTGQKIQIVTAVDASGSPKQQFILTSPDGAGTGKVILASPETSSAKQLIFTTSDNLVPGRIQIVTDSASVERLLGKTDVQRPQVVEYCVVCGDKASGRHYGAVSCEGCKGFFKRSVRKNLTYSCRSSQDCIINKHHRNRCQFCRLKKCLEMGMKMESVQSERKPFDVQREKPSNCAASTEKIYIRKDLRSPLIATPTFVADKDGARQTGLLDPGMLVNIQQPLIREDGTVLLATDSKAETSQGALGTLANVVTSLANLSESLNNGDTSEIQPEDQSASEITRAFDTLAKALNTTDSSSSPSLADGIDTSGGGSIHVISRDQSTPIIEVEGPLLSDTHVTFKLTMPSPMPEYLNVHYICESASRLLFLSMHRARSIPAFQGLGQDCNTSLVRACWNELFTLGLAQCAQVMSLSTILAAIVNHLQNSIQEDKLSGDRIKQVMEHIWKLQEFCNSMANWDIDGYEYAYLKAIVLFSPDHPGLTSTSQIEKFQEKAQMELQDYVQKTYSEDTYRLARILVRLPALRLMSSNITEELFFTGLIGNVSIDSIIPYILKMETAEYNGQITGVSL
[5]
  binding: binds
AR-D (DBD of AR) (human) [6]
  binding: binds
AR-L (LBD of AR) (human) [7]
  binding: binds

B3: TR4 LBD (row label of Table 4) (receptor)
chain: AASTEKIYIRKDLRSPLIATPTFVADKDGARQTGLLDPGMLVNIQQPLIREDGTVLLATDSKAETSQGALGTLANVVTSLANLSESLNNGDTSEIQPEDQSASEITRAFDTLAKALNTTDSSSSPSLADGIDTSGGGSIHVISRDQSTPIIEVEGPLLSDTHVTFKLTMPSPMPEYLNVHYICESASRLLFLSMHRARSIPAFQGLGQDCNTSLVRACWNELFTLGLAQCAQVMSLSTILAAIVNHLQNSIQEDKLSGDRIKQVMEHIWKLQEFCNSMANWDIDGYEYAYLKAIVLFSPDHPGLTSTSQIEKFQEKAQMELQDYVQKTYSEDTYRLARILVRLPALRLMSSNITEELFFTGLIGNVSIDSIIPYILKMETAEYNGQITGVSL
notes: not shown: Fusion partner: GST in the pull-down with ER, GAL4-DBD in the hybrid assays with AR
[8]
  binding: binds

Results are given in words; binding and its absence hold for the method and conditions named. A result given as binding can be weak or reduced; the word gives no strength. For some assays here: Binding seen in cells or lysates may run through a third protein. For some assays here: Where a sequence is shown, tags or fusion partners need not be part of it.
